Results are given in words; binding and its absence hold for the method and conditions named. Some binding calls cover weakened binding; strength is not graded here.

Sequences of proteins named here, by UniProt entry; tags and fusion partners are left off. A change or cut given only in a name is not applied to a line headed by its entry.
UniProt P09603: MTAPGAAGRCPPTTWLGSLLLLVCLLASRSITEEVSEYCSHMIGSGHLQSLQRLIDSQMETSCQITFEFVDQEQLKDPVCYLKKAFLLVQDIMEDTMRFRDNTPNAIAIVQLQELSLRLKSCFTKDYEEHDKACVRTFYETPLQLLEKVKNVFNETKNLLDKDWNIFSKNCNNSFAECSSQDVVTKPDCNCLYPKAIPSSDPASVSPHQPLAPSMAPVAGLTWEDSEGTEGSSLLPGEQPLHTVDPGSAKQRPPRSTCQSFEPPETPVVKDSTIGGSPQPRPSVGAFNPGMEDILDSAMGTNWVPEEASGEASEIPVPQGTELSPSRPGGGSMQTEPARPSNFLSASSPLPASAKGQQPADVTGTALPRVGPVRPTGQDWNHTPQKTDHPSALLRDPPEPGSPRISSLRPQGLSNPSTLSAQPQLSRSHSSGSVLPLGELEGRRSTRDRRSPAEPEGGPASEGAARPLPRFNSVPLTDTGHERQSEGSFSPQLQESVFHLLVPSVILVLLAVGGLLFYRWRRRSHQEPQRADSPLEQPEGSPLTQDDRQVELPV

Four molecules from patent US20170152311A1 can be followed below.

Assay [1] has as its target recombinant human M-CSF (human) (UniProt P09603). The experiment in a line: ELISA screening of hybridoma clones. (ELISA stands for enzyme-linked immunosorbent assay.)
Assay [2] has the same target. The experiment in a line: size exclusion chromatography or light scattering of equimolar M-CSF and antibody. On the technique in general: In gel filtration, larger molecules generally elute earlier.

B1: murine monoclonal antibody MC1 (antibody, mouse IgG2a, kappa, V domains shown)
VH: EVKLVESGGGLVQPGGSLKLSCATSGFTFSDYYMYWVRQTPEKRLEWVAYISNGGGSTYYPDTVKGRFTISRDNAKNTLYLQMSRLKSEDTAMYYCARQGSYGYPFAYWGQGTLVTVSA
VL: AIQMTQTTSSLSASLGDRVTISCSASQGISNYLNWYQQKPDGTVKLLIYYTSSLHSGVPSRFSGSGSGTDYSLTISNLEPEDIATYYCQQYSKLPWTFGGGTKLEIKR
Regarding B1, the binding result in assay [1] is “binds”.

B2: heRX1-9.G2 (antibody, V domains shown, not shown: a dimerising Fc or GST)
VH: DVQLQESGPGLVKPSQTLSLTCTVTDYSITSDYAWNWIRQFPGKKLEWMGYISYSGSTSYNPSLKSRITISRDTSKNQFSLQLNSVTAADTATYYCASFDYAHAMDYWGQGTTVTVSS
VL: DIVLTQSPAFLSVTPGEKVTFTCQASQSIGTSIHWYQQKTDQAPKLLIKYASESISGIPSRFSGSGSGTDFTLTISSVEAEDAADYYCQQINSWPTTFGGGTKLEIKR
On to B2, for which the binding entry in assay [2] is “binds”.

B3: heRX1-10.G2 (antibody, V domains shown, not shown: a dimerising Fc or GST)
VH: QVQLQESGPGLVKPSQTLSLTCTVSDYSITSDYAWNWIRQFPGKGLEWMGYISYSGSTSYNPSLKSRITISRDTSKNQFSLQLNSVTAADTAVYYCASFDYAHAMDYWGQGTTVTVSS
VL: DIVLTQSPAFLSVTPGEKVTFTCQASQSIGTSIHWYQQKTDQAPKLLIKYASESISGIPSRFSGSGSGTDFTLTISSVEAEDAADYYCQQINSWPTTFGGGTKLEIKR
Consider B3, for which the binding result in assay [2] is “binds”.

B4: heRX1-1.G2 (antibody, not shown: a dimerising Fc or GST)
heavy: DVQLQESGPGLVKPSQTLSLTCTVTDYSITSDYAWNWIRQFPGKKLEWMGYISYSGSTSYNPSLKSRITISRDTSKNQFSLQLNSVTAADTATYYCASFDYAHAMDYWGQGTTVTVSS
light: EIVLTQSPGTLSVSPGERVTFSCRASQSIGTSIHWYQQKTGQSPRLLIKYASERISGIPDRFSGSGSGTDFTLTISRVESEDFADYYCQQINSWPTTFGQGTKLEIKRT
In the case of B4, the binding result in assay [2] is reported as “binds”.
